Data from article PMC10556033.

Protein sequences, listed by entry. Tags and fused reporters are not part of them. Residues count along the entry.
UniProt P98161, residues 24-4303: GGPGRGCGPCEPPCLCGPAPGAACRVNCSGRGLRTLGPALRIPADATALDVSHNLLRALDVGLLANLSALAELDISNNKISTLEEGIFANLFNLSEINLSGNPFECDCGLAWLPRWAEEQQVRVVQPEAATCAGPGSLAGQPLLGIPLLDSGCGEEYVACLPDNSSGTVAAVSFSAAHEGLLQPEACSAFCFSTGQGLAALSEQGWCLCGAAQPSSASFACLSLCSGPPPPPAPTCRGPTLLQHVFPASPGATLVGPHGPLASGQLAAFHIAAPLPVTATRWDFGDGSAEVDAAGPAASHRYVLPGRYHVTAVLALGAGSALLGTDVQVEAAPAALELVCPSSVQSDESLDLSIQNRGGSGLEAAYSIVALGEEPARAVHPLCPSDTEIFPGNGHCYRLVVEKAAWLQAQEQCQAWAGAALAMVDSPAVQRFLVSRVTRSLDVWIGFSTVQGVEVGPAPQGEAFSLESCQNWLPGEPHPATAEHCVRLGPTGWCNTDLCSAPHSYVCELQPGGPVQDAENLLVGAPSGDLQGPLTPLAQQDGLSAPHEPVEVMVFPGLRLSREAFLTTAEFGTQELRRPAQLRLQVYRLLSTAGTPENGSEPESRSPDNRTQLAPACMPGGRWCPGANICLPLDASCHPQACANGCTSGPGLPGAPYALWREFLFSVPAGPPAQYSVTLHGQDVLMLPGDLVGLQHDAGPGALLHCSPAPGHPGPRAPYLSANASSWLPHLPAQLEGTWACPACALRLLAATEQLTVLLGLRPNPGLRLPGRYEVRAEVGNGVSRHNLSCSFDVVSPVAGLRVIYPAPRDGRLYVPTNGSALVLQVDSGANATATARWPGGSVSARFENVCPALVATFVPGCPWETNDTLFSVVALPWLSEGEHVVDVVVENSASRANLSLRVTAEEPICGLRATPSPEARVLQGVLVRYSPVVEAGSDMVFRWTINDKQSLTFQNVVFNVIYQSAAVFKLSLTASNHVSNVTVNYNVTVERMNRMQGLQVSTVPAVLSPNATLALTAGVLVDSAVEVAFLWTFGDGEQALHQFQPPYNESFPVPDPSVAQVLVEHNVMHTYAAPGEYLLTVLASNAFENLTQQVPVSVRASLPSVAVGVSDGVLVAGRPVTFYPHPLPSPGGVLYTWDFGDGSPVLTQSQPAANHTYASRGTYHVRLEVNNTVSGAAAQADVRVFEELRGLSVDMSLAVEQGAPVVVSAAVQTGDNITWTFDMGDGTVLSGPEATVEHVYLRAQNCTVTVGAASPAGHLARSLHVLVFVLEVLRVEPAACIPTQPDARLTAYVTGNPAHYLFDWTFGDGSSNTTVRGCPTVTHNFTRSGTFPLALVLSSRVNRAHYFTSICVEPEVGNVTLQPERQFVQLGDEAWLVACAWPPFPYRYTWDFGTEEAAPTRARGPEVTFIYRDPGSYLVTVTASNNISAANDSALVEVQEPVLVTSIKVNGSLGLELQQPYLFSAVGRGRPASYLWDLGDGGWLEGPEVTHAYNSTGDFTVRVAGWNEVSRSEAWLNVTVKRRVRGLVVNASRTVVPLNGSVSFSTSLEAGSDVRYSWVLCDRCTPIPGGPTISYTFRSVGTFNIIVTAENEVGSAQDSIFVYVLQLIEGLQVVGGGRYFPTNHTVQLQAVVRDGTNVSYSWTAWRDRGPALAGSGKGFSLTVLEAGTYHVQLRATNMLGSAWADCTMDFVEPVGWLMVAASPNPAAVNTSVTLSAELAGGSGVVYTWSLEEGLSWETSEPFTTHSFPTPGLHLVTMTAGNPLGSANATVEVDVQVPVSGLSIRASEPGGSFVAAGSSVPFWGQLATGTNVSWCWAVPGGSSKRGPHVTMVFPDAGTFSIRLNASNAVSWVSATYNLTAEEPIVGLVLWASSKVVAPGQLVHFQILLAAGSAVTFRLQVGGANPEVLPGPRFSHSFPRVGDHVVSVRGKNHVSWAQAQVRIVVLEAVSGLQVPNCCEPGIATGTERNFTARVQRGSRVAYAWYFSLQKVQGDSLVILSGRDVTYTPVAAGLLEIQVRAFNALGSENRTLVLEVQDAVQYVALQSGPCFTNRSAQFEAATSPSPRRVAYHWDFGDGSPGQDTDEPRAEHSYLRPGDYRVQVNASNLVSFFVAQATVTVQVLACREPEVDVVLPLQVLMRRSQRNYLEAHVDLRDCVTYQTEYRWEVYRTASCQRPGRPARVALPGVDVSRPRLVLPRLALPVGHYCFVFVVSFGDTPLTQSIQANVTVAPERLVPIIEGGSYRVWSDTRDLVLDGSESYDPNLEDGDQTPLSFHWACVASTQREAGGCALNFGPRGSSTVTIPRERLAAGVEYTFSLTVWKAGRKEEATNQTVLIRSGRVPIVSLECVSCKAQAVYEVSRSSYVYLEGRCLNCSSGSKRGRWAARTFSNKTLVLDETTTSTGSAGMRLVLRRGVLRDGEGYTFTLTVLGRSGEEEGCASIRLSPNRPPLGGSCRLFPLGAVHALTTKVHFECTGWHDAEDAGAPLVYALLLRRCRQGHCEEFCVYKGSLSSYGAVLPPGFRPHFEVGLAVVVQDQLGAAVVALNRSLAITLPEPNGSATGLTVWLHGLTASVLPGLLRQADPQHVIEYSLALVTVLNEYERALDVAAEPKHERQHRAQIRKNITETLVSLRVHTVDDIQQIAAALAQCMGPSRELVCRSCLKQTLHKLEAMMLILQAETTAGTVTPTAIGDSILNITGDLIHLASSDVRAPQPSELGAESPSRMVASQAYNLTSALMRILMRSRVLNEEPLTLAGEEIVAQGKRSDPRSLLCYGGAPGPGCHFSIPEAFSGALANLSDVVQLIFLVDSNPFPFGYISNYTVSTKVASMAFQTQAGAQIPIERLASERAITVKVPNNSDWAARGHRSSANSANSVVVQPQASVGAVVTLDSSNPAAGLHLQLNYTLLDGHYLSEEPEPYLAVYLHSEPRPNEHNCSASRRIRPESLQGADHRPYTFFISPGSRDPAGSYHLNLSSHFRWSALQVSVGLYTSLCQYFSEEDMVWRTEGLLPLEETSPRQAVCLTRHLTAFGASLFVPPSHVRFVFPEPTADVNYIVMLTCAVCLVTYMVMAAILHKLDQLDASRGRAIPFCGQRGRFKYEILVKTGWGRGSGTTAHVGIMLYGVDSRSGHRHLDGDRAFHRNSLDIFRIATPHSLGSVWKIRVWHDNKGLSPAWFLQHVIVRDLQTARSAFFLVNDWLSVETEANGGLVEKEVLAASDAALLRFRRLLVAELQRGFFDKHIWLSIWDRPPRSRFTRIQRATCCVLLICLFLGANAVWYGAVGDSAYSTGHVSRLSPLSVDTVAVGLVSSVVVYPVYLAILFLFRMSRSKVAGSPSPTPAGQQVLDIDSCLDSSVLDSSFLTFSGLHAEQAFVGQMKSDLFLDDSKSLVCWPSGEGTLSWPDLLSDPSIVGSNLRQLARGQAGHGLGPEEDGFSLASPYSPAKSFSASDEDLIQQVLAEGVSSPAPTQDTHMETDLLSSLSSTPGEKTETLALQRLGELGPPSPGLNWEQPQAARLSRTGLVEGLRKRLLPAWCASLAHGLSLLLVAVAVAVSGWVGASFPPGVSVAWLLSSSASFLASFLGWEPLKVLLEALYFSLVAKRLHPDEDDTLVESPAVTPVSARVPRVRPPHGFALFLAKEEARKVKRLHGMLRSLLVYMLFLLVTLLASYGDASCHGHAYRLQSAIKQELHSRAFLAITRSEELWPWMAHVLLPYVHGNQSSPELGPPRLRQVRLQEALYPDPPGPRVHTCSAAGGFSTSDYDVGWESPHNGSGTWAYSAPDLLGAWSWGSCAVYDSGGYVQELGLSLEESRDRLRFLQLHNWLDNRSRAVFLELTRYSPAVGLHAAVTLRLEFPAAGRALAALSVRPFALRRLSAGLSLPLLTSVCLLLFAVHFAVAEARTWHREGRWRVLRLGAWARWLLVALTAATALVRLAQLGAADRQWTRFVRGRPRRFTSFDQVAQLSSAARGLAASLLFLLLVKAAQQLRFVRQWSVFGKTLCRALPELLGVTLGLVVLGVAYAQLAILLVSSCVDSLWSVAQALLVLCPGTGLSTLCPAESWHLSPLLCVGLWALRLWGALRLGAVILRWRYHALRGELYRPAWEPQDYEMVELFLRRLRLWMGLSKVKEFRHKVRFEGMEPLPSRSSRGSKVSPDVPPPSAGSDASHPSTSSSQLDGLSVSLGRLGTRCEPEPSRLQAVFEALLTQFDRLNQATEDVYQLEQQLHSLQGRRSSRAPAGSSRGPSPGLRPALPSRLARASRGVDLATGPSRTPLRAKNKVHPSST
UniProt Q7Z6E9: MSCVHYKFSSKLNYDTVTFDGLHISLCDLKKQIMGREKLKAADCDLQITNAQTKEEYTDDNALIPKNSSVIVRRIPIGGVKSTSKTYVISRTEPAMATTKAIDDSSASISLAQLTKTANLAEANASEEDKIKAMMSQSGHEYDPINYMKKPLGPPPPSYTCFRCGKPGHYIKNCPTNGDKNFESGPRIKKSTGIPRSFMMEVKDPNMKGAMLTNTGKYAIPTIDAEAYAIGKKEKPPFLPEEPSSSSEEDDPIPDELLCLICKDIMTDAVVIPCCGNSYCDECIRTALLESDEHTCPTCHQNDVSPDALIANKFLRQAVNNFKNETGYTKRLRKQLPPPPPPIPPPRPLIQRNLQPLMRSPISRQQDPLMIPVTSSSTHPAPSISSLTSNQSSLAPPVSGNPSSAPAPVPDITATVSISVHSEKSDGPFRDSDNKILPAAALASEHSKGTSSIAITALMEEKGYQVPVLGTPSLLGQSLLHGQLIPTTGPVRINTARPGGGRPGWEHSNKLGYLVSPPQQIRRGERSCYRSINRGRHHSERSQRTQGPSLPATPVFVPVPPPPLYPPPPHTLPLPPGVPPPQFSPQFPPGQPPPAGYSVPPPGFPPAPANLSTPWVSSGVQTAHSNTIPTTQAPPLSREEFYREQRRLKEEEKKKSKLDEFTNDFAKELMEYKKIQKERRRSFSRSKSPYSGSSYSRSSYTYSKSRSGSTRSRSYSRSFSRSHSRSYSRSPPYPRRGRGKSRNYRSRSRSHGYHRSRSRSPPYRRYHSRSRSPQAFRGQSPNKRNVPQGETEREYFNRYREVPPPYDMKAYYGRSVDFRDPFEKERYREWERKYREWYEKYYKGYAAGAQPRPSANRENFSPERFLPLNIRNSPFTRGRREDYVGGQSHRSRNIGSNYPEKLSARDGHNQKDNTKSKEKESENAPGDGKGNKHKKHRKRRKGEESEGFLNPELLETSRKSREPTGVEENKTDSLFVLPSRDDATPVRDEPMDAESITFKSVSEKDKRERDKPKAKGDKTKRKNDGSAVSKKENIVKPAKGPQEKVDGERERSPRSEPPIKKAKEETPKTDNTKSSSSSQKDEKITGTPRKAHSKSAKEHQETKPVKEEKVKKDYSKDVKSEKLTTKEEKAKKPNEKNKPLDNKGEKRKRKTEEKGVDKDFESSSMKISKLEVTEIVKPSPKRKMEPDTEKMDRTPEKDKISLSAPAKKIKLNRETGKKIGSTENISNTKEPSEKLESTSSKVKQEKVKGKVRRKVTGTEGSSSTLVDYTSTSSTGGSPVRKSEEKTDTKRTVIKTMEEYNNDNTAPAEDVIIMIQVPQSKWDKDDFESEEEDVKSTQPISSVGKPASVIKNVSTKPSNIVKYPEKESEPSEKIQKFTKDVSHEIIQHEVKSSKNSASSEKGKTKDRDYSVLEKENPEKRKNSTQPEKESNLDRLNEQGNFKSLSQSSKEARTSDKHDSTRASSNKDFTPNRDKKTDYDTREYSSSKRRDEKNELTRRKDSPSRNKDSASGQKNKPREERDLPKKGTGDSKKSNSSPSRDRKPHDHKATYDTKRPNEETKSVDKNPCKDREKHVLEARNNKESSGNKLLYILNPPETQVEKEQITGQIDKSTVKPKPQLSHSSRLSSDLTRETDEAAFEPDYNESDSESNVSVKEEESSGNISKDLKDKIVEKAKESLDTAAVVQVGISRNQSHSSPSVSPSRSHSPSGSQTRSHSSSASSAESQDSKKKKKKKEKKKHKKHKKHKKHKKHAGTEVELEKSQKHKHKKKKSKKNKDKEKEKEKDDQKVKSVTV
UniProt O60573: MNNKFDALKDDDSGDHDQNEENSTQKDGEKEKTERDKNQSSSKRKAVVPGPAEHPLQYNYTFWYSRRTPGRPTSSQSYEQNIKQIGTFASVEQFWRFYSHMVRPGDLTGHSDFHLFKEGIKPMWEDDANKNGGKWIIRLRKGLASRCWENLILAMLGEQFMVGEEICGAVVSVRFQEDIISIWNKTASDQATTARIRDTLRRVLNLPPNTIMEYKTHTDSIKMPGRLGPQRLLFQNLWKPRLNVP

These substances were tested against T1, His-tagged mesoderm-specific transcript (MEST), from MEST cDNA plasmid (UniProt Q5EB52) (assay: affinity purification with mass spectrometry; anti-MEST antibody on Protein A/G PLUS-Agarose; RIPA lysate of HTR-8/SVneo cells transfected with MEST cDNA or MEST mut; eluate separated by SDS-PAGE, trypsin digest, LC-MS/MS).
T1 sequence (chain, N-glycan with LeY and α1,3-fucosylation at Asn163): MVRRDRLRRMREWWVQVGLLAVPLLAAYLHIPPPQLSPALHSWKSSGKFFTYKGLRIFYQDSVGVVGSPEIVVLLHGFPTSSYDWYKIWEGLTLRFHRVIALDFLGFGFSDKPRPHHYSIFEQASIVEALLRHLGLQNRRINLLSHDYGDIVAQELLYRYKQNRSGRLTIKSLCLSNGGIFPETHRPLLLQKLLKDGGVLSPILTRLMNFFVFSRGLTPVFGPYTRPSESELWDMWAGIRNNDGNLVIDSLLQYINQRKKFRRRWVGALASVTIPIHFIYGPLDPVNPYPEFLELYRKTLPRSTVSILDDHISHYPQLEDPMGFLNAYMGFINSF

binding | Substance
binds | CUL4A (from UniProt Q13619 1-759)
binds | PKD1 (from UniProt P98161 24-4303)
binds | RBBP6 (from UniProt Q7Z6E9 1-1792)
binds | eukaryotic initiation factor eIF4E2 (from UniProt O60573 1-245)

Results are given in words; binding and its absence hold for the method and conditions named. Binding seen in cells or lysates may run through a third protein. A yes stands for co-enrichment or nearness to the bait. Other partners may have been found. Where a sequence is shown, tags or fusion partners need not be part of it.
